Data from PMC7701562.
Results are given in words; binding and its absence hold for the method and conditions named. In cells and extracts the contact can be indirect. Some results given as binding are weak or reduced against the parent protein; the word gives no strength.

Protein sequences, listed by entry. Tags and fused reporters are not part of them. Residues count along the entry.
UniProt O00206, residues 24-839: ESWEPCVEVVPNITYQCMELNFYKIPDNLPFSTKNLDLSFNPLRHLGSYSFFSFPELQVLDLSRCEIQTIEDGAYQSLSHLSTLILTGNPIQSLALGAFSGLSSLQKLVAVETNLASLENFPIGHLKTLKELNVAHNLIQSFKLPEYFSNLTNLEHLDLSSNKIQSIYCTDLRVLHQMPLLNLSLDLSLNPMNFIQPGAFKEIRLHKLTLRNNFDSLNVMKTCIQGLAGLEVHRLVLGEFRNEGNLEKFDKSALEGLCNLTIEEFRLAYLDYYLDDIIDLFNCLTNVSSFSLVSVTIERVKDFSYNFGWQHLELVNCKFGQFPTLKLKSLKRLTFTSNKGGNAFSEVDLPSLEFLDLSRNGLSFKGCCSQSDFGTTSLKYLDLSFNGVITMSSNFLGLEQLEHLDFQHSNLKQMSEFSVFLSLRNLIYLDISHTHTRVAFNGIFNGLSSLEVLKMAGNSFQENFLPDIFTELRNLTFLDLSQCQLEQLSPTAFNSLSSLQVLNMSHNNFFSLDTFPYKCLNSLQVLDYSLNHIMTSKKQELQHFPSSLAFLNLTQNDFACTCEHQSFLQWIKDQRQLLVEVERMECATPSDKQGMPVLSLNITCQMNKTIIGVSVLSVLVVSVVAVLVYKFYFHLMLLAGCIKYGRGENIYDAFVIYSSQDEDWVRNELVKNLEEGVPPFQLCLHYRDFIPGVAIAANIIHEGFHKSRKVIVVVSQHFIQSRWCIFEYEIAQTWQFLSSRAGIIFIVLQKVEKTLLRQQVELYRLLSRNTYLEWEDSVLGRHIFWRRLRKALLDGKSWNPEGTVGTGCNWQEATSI

Target: Toll‐like receptor 4 (TLR4) (human (endogenous in primary human OA chondrocytes)) (UniProt O00206)
Assay: co-IP; lysates of primary human OA chondrocytes incubated with anti-TLR4 antibody for 1 h, protein G-Sepharose overnight at 4°C, washed with cold PBS, immunoblot with anti-MD-2; cells untreated, treated with LPS (1 μg/mL), LPS with Astilbin (40 μmol/L) pre-treatment, or Astilbin alone

binding: binds
B1: Myeloid differentiation protein‐2 (MD‐2) (protein, UniProt Q9Y6Y9 19-160)
chain: QKQYWVCNSSDASISYTYCDKMQYPISINVNPCIELKRSKGLLHIFYIPRRDLKQLYFNLYITVNTMNLPKRKEVICRGSDDDYSFCRALKGETVNTTISFSFKGIKFSKGKYKCVVEAISGSPEEMLFCLEFVILHQPNSN
